Test results reported in the supplement of paper PMC4604168 (melanoma cell lines).
Some of the results follow. Single values are uncertain, as repeats are few or missing.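 Cells were imaged in 1,536-well plates, and nuclei stained with an antibody against cleaved PARP were counted against all DNA-stained nuclei to give the apoptosis fraction. Screening doses were chosen to leave most cells alive, and resting and induced cleaved-PARP levels differ strongly between cell lines.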

How the values were obtained:
Test in all cases: cleaved PARP positive nuclei fraction relative to DMSO control; melanoma cells; higher = more apoptosis
Settings in all cases: library dose: low library concentration; 72 h
WM115 = system: WM115
WM1716 = system: WM1716
WM1745 = system: WM1745
WM3526 = system: WM3526
WM3619 = system: WM3619
WM451Lu = system: WM451Lu

Structure (SMILES) | cleaved PARP positive nuclei fraction (WM115) | cleaved PARP positive nuclei fraction (WM1716) | cleaved PARP positive nuclei fraction (WM1745) | cleaved PARP positive nuclei fraction (WM3526) | cleaved PARP positive nuclei fraction (WM3619) | cleaved PARP positive nuclei fraction (WM451Lu)
NC(=O)c1ccc(N(C(N)=O)c2c(F)cccc2F)nc1-c1ccc(F)cc1F + COCC[n+]1c2c(n(Cc3cnccn3)c1C)C(=O)c1ccccc1C2=O [YM155] (first compound 0.4 µM, partner dose 0.0004 µM) | 153% | 196% | 158% | 77.9% | 91.6% | 118%
NC1(c2ccc(-c3nc4ccn5c(=O)[nH]nc5c4cc3-c3ccccc3)cc2)CCC1 + Cc1nc(Nc2ncc(C(=O)Nc3c(C)cccc3Cl)s2)cc(N2CCN(CCO)CC2)n1 [dasatanib] (first compound 0.4 µM, partner dose 0.004 µM) | 644% | 106% | 142% | 119% | 95% | 64.9%
CCCCCCCCc1ccc(CCC(N)(CO)CO)cc1 [fingolimod] + O=C(Nc1cccc(Cl)c1)Nc1ncc(CCNc2ncnc3ccsc23)s1 [SNS314] (first compound 2 µM, partner dose 0.0008 µM) | 141% | 191% | 132% | 59.7% | 109% | 60.9%
C[C@@H](N)c1ccc(C(=O)Nc2ccnc3[nH]ccc23)cc1 + C=CCn1c(=O)c2cnc(Nc3ccc(N4CCN(C)CC4)cc3)nc2n1-c1cccc(C(C)(C)O)n1 [MK1775] (first compound 0.4 µM, partner dose 0.02 µM) | 47.5% | 251% | 142% | 49.9% | 114% | 24.2%
CC(=O)O[C@@]12CO[C@@H]1C[C@H](O)[C@@]1(C)C(=O)[C@H](O)C3=C(C)[C@@H](OC(=O)[C@H](O)[C@@H](NC(=O)OC(C)(C)C)c4ccccc4)C[C@@](O)([C@@H](OC(=O)c4ccccc4)[C@H]21)C3(C)C [Docetaxel] + O=C(Nc1cccc(Cl)c1)Nc1ncc(CCNc2ncnc3ccsc23)s1 [SNS314] (first compound 0.0001 µM, partner dose 0.0008 µM) | 138% | 421% | 208% | 120% | 141% | 350%
CN(c1ncccc1CNc1nc(Nc2ccc3c(c2)CC(=O)N3)ncc1C(F)(F)F)S(C)(=O)=O + CCc1ccc(CCOc2ccc(CC3SC(=O)NC3=O)cc2)nc1 [pioglitazone] (first compound 0.08 µM, partner dose 2 µM) | 91.5% | 239% | 114% | 74.1% | 20.5% | 109%
Cn1sc(=O)n(Cc2ccccc2)c1=O + CN(C)S(=O)(=O)c1ccc2c(c1)/C(=C/c1cc3c([nH]1)CCCC3)C(=O)N2 [SU6656] (first compound 0.4 µM, partner dose 0.4 µM) | 419% | 101% | 103% | 62.9% | 100% | 86.1%
Cn1sc(=O)n(Cc2ccccc2)c1=O + CC(=O)O[C@@]12CO[C@@H]1C[C@H](O)[C@@]1(C)C(=O)[C@H](O)C3=C(C)[C@@H](OC(=O)[C@H](O)[C@@H](NC(=O)OC(C)(C)C)c4ccccc4)C[C@@](O)([C@@H](OC(=O)c4ccccc4)[C@H]21)C3(C)C [Docetaxel] (first compound 0.4 µM, partner dose 0.0001 µM) | 160% | 167% | 178% | 72.7% | 147% | 153%
CN(c1ncccc1CNc1nc(Nc2ccc3c(c2)CC(=O)N3)ncc1C(F)(F)F)S(C)(=O)=O + Cc1cc(Nc2cc(N3CCN(C)CC3)nc(/C=C/c3ccccc3)n2)n[nH]1 [ENMD2076] (first compound 0.08 µM, partner dose 0.04 µM) | 103% | 73.2% | 113% | 400% | 167% | 99%
CN(c1ncccc1CNc1nc(Nc2ccc3c(c2)CC(=O)N3)ncc1C(F)(F)F)S(C)(=O)=O + O=C(O)C(=O)Nc1sc2c(c1C(=O)O)CCNC2 [TCS401] (first compound 0.08 µM, partner dose 1.66667 µM) | 125% | 344% | 131% | 66.6% | 94.7% | 258%
NC1(c2ccc(-c3nc4ccn5c(=O)[nH]nc5c4cc3-c3ccccc3)cc2)CCC1 + O=C(O)C(=O)Nc1sc2c(c1C(=O)O)CCNC2 [TCS401] (first compound 0.4 µM, partner dose 1.66667 µM) | 124% | 147% | 119% | 54.7% | 100% | 166%
COc1ccc(C2=N[C@@H](c3ccc(Cl)cc3)[C@@H](c3ccc(Cl)cc3)N2C(=O)N2CCNC(=O)C2)c(OC(C)C)c1 [Nutlin-3] + OCc1c[nH]c2ccccc12 [Indole-3-carbinol] (first compound 0.1 µM, partner dose 0.8 µM) | 164% | 80.7% | 90.1% | 203% | 97.1% | 49%

Some entries already given, reduced to cleaved PARP positive nuclei fraction (WM451Lu) and cleaved PARP positive nuclei fraction (WM3619):
Structure (SMILES),cleaved PARP positive nuclei fraction (WM451Lu),cleaved PARP positive nuclei fraction (WM3619)
"CCCCCCCCc1ccc(CCC(N)(CO)CO)cc1 [fingolimod] + O=C(Nc1cccc(Cl)c1)Nc1ncc(CCNc2ncnc3ccsc23)s1 [SNS314] (first compound 2 µM, partner dose 0.0008 µM)",60.9%,109%
"CN(c1ncccc1CNc1nc(Nc2ccc3c(c2)CC(=O)N3)ncc1C(F)(F)F)S(C)(=O)=O + Cc1cc(Nc2cc(N3CCN(C)CC3)nc(/C=C/c3ccccc3)n2)n[nH]1 [ENMD2076] (first compound 0.08 µM, partner dose 0.04 µM)",99%,167%
